Results taken from article PMC6179184, “Interaction of the Warsaw breakage syndrome DNA helicase DDX11 with the replication fork-protection factor Timeless promotes sister chromatid cohesion” (PLoS Genetics, 2018).
Where a chain is given by its changes, count along the chain named. These are yes or no findings as the source states them, for the method shown. In cells and extracts the contact can be indirect. Some binding calls cover weakened binding; strength is not graded here. Where a sequence is shown, tags or fusion partners need not be part of it. One block for each binder: values may come before it.

Columns and labels:
Test in all cases: co-IP; whole cell extracts of HEK 293T cells transiently expressing DDX11-3xFlag (wild type or mutants), anti-Flag M2 agarose beads, 50 mM Tris-HCl pH 8.0, 150 mM NaCl, 0.25% Triton X-100, 10% glycerol, 2 hr at 4 C, elution with Flag peptide; Western blot of endogenous partners
[1] = target: T1, DDX11-3xFlag wild type (human) (UniProt Q96FC9)
T1 sequence: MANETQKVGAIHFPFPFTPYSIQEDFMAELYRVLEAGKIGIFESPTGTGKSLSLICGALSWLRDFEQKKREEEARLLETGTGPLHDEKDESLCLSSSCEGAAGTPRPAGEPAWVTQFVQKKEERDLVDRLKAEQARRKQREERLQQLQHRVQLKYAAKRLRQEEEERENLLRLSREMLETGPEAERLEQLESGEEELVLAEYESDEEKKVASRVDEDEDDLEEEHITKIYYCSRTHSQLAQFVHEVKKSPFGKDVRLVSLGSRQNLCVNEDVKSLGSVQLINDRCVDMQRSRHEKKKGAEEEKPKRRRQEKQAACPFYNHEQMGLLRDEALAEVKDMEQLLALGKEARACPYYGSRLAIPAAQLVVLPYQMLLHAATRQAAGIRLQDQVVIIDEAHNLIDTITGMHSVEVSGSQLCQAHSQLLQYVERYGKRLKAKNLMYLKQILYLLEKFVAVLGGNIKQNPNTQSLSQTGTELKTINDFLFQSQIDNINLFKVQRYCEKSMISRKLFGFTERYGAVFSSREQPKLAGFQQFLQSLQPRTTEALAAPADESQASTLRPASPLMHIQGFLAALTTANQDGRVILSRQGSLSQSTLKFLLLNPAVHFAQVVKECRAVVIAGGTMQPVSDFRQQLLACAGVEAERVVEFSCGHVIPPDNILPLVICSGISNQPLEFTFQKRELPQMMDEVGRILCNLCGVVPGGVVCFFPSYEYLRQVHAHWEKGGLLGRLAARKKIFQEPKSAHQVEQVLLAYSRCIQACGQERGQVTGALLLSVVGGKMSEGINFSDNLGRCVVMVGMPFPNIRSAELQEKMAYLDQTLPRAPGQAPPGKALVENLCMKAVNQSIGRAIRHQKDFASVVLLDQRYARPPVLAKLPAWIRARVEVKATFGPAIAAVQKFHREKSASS

[2] = target: T2, DDX11-3xFlag K50R mutant (human) (UniProt Q96FC9)
T2 sequence: T1 sequence with K50R

[3] = target: T3, DDX11-3xFlag KAK mutant (human) (UniProt Q96FC9)
T3 sequence: T1 sequence with E201K, Y202A, E203K

binding [1]: binds
binding [2]: binds
binding [3]: binds
B1: endogenous WDHD1 (HEK 293T) (protein, UniProt O75717 1-1129)
chain: MPATRKPMRYGHTEGHTEVCFDDSGSFIVTCGSDGDVRIWEDLDDDDPKFINVGEKAYSCALKSGKLVTAVSNNTIQVHTFPEGVPDGILTRFTTNANHVVFNGDGTKIAAGSSDFLVKIVDVMDSSQQKTFRGHDAPVLSLSFDPKDIFLASASCDGSVRVWQISDQTCAISWPLLQKCNDVINAKSICRLAWQPKSGKLLAIPVEKSVKLYRRESWSHQFDLSDNFISQTLNIVTWSPCGQYLAAGSINGLIIVWNVETKDCMERVKHEKGYAICGLAWHPTCGRISYTDAEGNLGLLENVCDPSGKTSSSKVSSRVEKDYNDLFDGDDMSNAGDFLNDNAVEIPSFSKGIINDDEDDEDLMMASGRPRQRSHILEDDENSVDISMLKTGSSLLKEEEEDGQEGSIHNLPLVTSQRPFYDGPMPTPRQKPFQSGSTPLHLTHRFMVWNSIGIIRCYNDEQDNAIDVEFHDTSIHHATHLSNTLNYTIADLSHEAILLACESTDELASKLHCLHFSSWDSSKEWIIDLPQNEDIEAICLGQGWAAAATSALLLRLFTIGGVQKEVFSLAGPVVSMAGHGEQLFIVYHRGTGFDGDQCLGVQLLELGKKKKQILHGDPLPLTRKSYLAWIGFSAEGTPCYVDSEGIVRMLNRGLGNTWTPICNTREHCKGKSDHYWVVGIHENPQQLRCIPCKGSRFPPTLPRPAVAILSFKLPYCQIATEKGQMEEQFWRSVIFHNHLDYLAKNGYEYEESTKNQATKEQQELLMKMLALSCKLEREFRCVELADLMTQNAVNLAIKYASRSRKLILAQKLSELAVEKAAELTATQVEEEEEEEDFRKKLNAGYSNTATEWSQPRFRNQVEEDAEDSGEADDEEKPEIHKPGQNSFSKSTNSSDVSAKSGAVTFSSQGRVNPFKVSASSKEPAMSMNSARSTNILDNMGKSSKKSTALSRTTNNEKSPIIKPLIPKPKPKQASAASYFQKRNSQTNKTEEVKEENLKNVLSETPAICPPQNTENQRPKTGFQMWLEENRSNILSDNPDFSDEADIIKEGMIRFRVLSTEERKVWANKAKGETASEGTEAKKRKRVVDESDETENQEEKAKENLNLSKKQKPLDFSTNQKLSAFAFKQE

binding [1]: binds
binding [2]: binds
binding [3]: binds
B2: endogenous Cdc45 (HEK 293T) (protein, UniProt O75419 1-566)
chain: MFVSDFRKEFYEVVQSQRVLLFVASDVDALCACKILQALFQCDHVQYTLVPVSGWQELETAFLEHKEQFHYFILINCGANVDLLDILQPDEDTIFFVCDTHRPVNVVNVYNDTQIKLLIKQDDDLEVPAYEDIFRDEEEDEEHSGNDSDGSEPSEKRTRLEEEIVEQTMRRRQRREWEARRRDILFDYEQYEYHGTSSAMVMFELAWMLSKDLNDMLWWAIVGLTDQWVQDKITQMKYVTDVGVLQRHVSRHNHRNEDEENTLSVDCTRISFEYDLRLVLYQHWSLHDSLCNTSYTAARFKLWSVHGQKRLQEFLADMGLPLKQVKQKFQAMDISLKENLREMIEESANKFGMKDMRVQTFSIHFGFKHKFLASDVVFATMSLMESPEKDGSGTDHFIQALDSLSRSNLDKLYHGLELAKKQLRATQQTIASCLCTNLVISQGPFLYCSLMEGTPDVMLFSRPASLSLLSKHLLKSFVCSTKNRRCKLLPLVMAAPLSMEHGTVTVVGIPPETDSSDRKNFFGRAFEKAAESTSSRMLHNHFDLSVIELKAEDRSKFLDALISLLS
